Results are given in words; binding and its absence hold for the method and conditions named. Binding seen in cells or lysates may run through a third protein.
Columns and labels:
[1] = biological target: GST-fused amino-terminal SH2 domain of p85 (PI3-K); experiment: pull-down; 5 µg GST-fusion protein on Sepharose beads incubated 2 h at 4 °C with 200 µg lysate of osteoclasts treated with TNF-α and bone particles for 3-4 h; washed with lysis buffer and cold PBS; immunoblot with LPL and TRAF-6 antibodies; only the target purified
[2] = biological target: GST-fused carboxyl-terminal SH2 domain of p85 (PI3-K); experiment: as above

binding [1]	binding [2]	Binder
no binding	no binding	L-plastin (LPL) (protein, UniProt Q61233 1-627) MARGSVSDEEMMELREAFAKVDTDGNGYISCNELNDLFKAACLPLPGYRVREITENLMATGDLDQDGKISFDEFIKVFHGLKSTEVAKTFRKAINKKEGICAIGGTSEQSSVGTQHSYSEEEKYAFVNWINKALENDPDCRHVIPMNPNTDDLFNAVGDGIVLCKMINLSVPDTIDERTINKKKLTPFTIQENLNLALNSASAIGCHVVNIGAEDLKEGKPYLVLGLLWQVIKIGLFADIELSRNEALIALLREGESLEDLMKLSPEELLLRWANYHLENAGCTKITNFSTDIKDSKAYYHLLEQVAPKGDEEGIPAVVIDMSGLREKDDIQRAECMLQQAERLGCRQFVTATDVVRGNPKLNLAFIANLFNKYPALHKPENQDIDWGALEGETREERTFRNWMNSLGVNPRVNHLYSDLSDALVIFQLYEKIKVPVDWNRVNKPPYPKLGGNMKKLENCNYAVDLGKNQAKFSLVGIAGQDLNEGNRTLTLALVWQLMRRYTLNILEDIGGGQKVNDDIIVNWVNTTLKEAQKSSSIASFKDPKISTSLPVLDLIDAIQPGSINYDLLKTENLDDEEKLNNAKYAISMARKIGARVYALPEDLVEVNPKMVMTVFACLMGKGMKRV
no binding	no binding	TRAF-6 (protein, UniProt P70196 1-530) MSLLNCENSCGSSQSSSDCCAAMAASCSAAVKDDSVSGSASTGNLSSSFMEEIQGYDVEFDPPLESKYECPICLMALREAVQTPCGHRFCKACIIKSIRDAGHKCPVDNEILLENQLFPDNFAKREILSLTVKCPNKGCLQKMELRHLEDHQVHCEFALVNCPQCQRPFQKCQVNTHIIEDCPRRQVSCVNCAVSMAYEEKEIHDQSCPLANIICEYCGTILIREQMPNHYDLDCPTAPIPCTFSVFGCHEKMQRNHLARHLQENTQLHMRLLAQAVHNVNLALRPCDAASPSRGCRPEDPNYEETIKQLESRLVRQDHQIRELTAKMETQSMYVGELKRTIRTLEDKVAEMEAQQCNGIYIWKIGNFGMHLKSQEEERPVVIHSPGFYTGRPGYKLCMRLHLQLPTAQRCANYISLFVHTMQGEYDSHLPWPFQGTIRLTILDQSEALIRQNHEEVMDAKPELLAFQRPTIPRNPKGFGYVTFMHLEALRQGTFIKDDTLLVRCEVSTRFDMGGLRKEGFQPRSTDAGV

— article PMC8464874
